Results are given in words; binding and its absence hold for the method and conditions named. Binding seen in cells or lysates may run through a third protein. These calls come from enrichment with a bait or labelling near it, and not all partners need be listed.

Amino acid sequences for entries named in this document (tags omitted).
UniProt P01106: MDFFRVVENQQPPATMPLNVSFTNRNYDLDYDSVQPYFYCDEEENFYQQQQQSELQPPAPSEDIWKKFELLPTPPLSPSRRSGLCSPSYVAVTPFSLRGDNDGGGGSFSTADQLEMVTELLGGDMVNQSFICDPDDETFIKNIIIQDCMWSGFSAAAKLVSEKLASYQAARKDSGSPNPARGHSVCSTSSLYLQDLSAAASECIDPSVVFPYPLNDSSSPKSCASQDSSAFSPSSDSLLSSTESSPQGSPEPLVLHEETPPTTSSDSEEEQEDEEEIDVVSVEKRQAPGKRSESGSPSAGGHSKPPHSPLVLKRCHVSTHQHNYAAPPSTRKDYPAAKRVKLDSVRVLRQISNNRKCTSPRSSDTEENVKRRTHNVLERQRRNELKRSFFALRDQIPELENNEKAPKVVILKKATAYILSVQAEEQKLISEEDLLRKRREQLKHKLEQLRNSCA

This assay has as its target T1, non-receptor protein tyrosine phosphatase type 2 (PTPN2), endogenous (human (endogenous in MOLM13)) (UniProt P17706).
T1 sequence: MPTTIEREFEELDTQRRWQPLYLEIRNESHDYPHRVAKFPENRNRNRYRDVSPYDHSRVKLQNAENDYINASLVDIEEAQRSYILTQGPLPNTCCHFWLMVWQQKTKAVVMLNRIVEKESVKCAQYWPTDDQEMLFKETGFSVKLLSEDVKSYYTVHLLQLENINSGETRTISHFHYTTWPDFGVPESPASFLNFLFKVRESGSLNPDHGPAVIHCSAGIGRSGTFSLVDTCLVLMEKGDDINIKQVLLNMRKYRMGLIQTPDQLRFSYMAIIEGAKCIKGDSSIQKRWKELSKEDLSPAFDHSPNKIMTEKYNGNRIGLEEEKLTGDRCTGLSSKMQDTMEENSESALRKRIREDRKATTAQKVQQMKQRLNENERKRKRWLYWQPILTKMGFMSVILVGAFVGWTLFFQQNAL
Briefly: affinity purification with mass spectrometry.

Take “C-MYC, endogenous (from UniProt P01106 1-454)”: the binding entry is on record as “binds”.

Values taken from doi:10.1101/2024.05.07.592940.
